Data taken from paper PMC6461653.
No constants are given. Whether binding was seen depends on the method and setting. For some assays here: In cells and extracts the contact can be indirect. Some binding calls cover weakened binding; strength is not graded here. Tags and fused reporters may be left off the sequences shown.

By UniProt entry, the sequences of proteins in these tests, tags left out.
UniProt Q24JK1: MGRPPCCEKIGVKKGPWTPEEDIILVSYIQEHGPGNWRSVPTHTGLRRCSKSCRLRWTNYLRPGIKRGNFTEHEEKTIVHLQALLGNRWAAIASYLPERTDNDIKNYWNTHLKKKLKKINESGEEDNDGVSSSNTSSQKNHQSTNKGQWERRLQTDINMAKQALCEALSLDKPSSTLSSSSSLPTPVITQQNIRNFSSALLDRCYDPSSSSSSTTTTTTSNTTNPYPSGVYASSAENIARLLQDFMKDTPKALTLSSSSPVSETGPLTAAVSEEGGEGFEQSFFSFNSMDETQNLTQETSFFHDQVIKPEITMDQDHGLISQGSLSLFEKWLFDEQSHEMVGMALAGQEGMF

What was measured:
[1] = target: T1, HDA15 fused to the N-terminal half of yellow fluorescent protein (nYFP) (Arabidopsis thaliana) (UniProt Q8GXJ1); assay: split reporter; BiFC: nYFP and cYFP fusions transiently coexpressed in Arabidopsis mesophyll protoplasts, 23 °C, 12-16 h in darkness, confocal microscopy
T1 sequence: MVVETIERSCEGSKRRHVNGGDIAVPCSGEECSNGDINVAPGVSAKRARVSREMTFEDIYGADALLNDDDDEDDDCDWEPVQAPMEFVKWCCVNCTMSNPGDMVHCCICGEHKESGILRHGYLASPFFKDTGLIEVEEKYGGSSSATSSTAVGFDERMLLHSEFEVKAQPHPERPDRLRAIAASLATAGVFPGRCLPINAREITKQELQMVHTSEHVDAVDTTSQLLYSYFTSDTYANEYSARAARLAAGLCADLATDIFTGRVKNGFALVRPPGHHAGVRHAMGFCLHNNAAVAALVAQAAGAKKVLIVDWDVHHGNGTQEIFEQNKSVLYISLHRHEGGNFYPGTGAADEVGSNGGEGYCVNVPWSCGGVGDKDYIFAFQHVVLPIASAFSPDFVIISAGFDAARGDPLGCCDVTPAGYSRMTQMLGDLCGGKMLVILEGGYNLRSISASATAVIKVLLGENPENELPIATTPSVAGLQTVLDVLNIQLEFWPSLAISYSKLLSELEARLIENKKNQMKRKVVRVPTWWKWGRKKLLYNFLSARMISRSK

[2] = target: T2, full-length HDA15 protein fused with the GAL4 DNA binding domain (BD) (Arabidopsis thaliana) (UniProt Q8GXJ1); assay: two-hybrid; GAL4 BD (pGBKT7) and GAL4 AD (pGADT7) fusions cotransformed into yeast AH109; growth on SD/-Leu/-Trp/-His/-Ade
T2 sequence: T1 sequence

| Substance | binding [1] | binding [2] |
| --- | --- | --- |
| MYB96 fused to the C-terminal half of YFP (cYFP) (from UniProt Q24JK1 1-352) | binds |  |
| MYB96 protein fused with the GAL4 activation domain (AD) (from UniProt Q24JK1 1-352) |  | binds |
